Laboratory results: US10959984B2, “Methods for treating cancer with RORγ inhibitors” (THE REGENTS OF THE UNIVERSITY OF CALIFORNIA, priority 2015, dated 2021)

Test system: C4-2B cells
Assay: RNA-seq gene expression profiling
Format: cell-based, human
Settings: 5 μM antagonist vs 20 μM ENZ, 48 h

| Structure (SMILES) | overlap of down-regulated genes with profile of anti-androgen ENZ |
| --- | --- |
| OC(c1ccc(-c2ccc(CN3CCN(Cc4ccncc4)CC3)cc2)c(F)c1)(C(F)(F)F)C(F)(F)F [SR2211, 2-Fluoro-4′-[[4-(4-pyridinylmethyl)-1-piperazinyl]methyl]-a,a-bis (trifluoromethyl)-[1,1′-biphenyl]-4-methanol] | 41% |
| CCN1C(=O)c2cccc3c(S(=O)(=O)Nc4ccc(OC)c(OC)c4)ccc1c23 [XY011, N-(3′,4′-dimethoxyphenyl)-1-ethyl-2-oxo-1,2-dihydrobenzo[cd]indole-6-sulfonamide] | 38% |
